# Experimental data from the supplement of paper PMC8728848.
# Some of the results follow.
# B1: Mnn9-2N3 (Aspergillus fumigatus) (protein)
# chain: MAVARRMRRTNPITLLLAAILAIGFFIFVLSPSTTSASPVKAGSASSSSTSQQRREDNAAENPLSPPTKPFFKSQPVRHDGQQAPPPVVQYNLNQLSSTSTSAANGERILILTPMARFVPEYWDNVVKLTYPHELISIGFIIPKNKEGNAALAALEAAIAKTQSGPIDKRFASISILRQDFEPPLQSQDEKERHKISNQKARRESMSRARNSLLFTTLGPATAWVLWLDADIVETPPTLIQDLTAHDHPVLVPNCYQRYYNSEKKKMDVRPYDYNSWIDSSTAQSMAAEMGPDEILLEGYAEMPTYRTLMAHLADTANPNPKKVIELDGVGGTALMVKAEVHRDGAMFPAFPFYHLVETEGFAKMAKRLGYSVYGLPDYFVSRNFFFFFFFFFFG
# Experiments:
# Assay in all cases: glycan array binding signal (z-score within array); higher = stronger binding
# Conditions in all cases: glycan notation: IUPAC condensed, linker removed
# [1] = molecular target: Neu5Ac(a2-6)Gal(b1-4)GlcNAc(b1-6)GalNAc
# How it was run: (§1)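 Glycan array data were curated from 3228 arrays in the Consortium for Functional Glycomics database and kept only where the protein sequence was available. Glycan names were converted to IUPAC-condensed notation, and columns mapping to the same glycan were averaged. The binding signal is a within-array Z-score, averaged across arrays of the same protein sequence at different concentrations or buffers and across linkers. Negative Z-scores can be read as non-binding.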
# [2] = molecular target: Neu5Ac(a2-6)Gal(b1-4)GlcNAc(b1-6)[Gal(b1-3)GlcNAc(b1-3)]Gal(b1-4)Glc
# How it was run: as §1
# [3] = molecular target: Neu5Ac(a2-6)Gal(b1-4)GlcNAc(b1-6)[Gal(b1-3)]GalNAc
# How it was run: as §1
# [4] = molecular target: Neu5Ac(a2-6)Gal(b1-4)GlcNAc6S
# How it was run: as §1
# Neu5Ac(a2-6)GalNAc = molecular target: Neu5Ac(a2-6)GalNAc
# How it was run: as §1
# [5] = molecular target: Neu5Ac(a2-6)GalNAc(b1-4)GlcNAc
# How it was run: as §1
# [6] = molecular target: Neu5Ac(a2-6)GalNAc(b1-4)GlcNAc6S
# How it was run: as §1
# [7] = molecular target: Neu5Ac(a2-6)GlcNAc(b1-4)GlcNAc
# How it was run: as §1
# [8] = molecular target: Neu5Ac(a2-6)GlcNAc(b1-4)GlcNAc(b1-4)GlcNAc
# How it was run: as §1
# Neu5Ac(a2-8)Neu5Ac = molecular target: Neu5Ac(a2-8)Neu5Ac
# How it was run: as §1
# [9] = molecular target: Neu5Ac(a2-8)Neu5Ac(a2-3)Gal(b1-3)GalNAc(b1-4)[Neu5Ac(a2-3)]Gal(b1-4)Glc
# How it was run: as §1
# [10] = molecular target: Neu5Ac(a2-8)Neu5Ac(a2-3)Gal(b1-3)GalNAc(b1-4)[Neu5Ac(a2-8)Neu5Ac(a2-3)]Gal(b1-4)Glc
# How it was run: as §1
# [11] = molecular target: Neu5Ac(a2-8)Neu5Ac(a2-3)Gal(b1-4)Glc
# How it was run: as §1
# [12] = molecular target: Neu5Ac(a2-8)Neu5Ac(a2-3)Gal(b1-4)GlcNAc
# How it was run: as §1
# [13] = molecular target: Neu5Ac(a2-8)Neu5Ac(a2-3)[Gal(b1-3)GalNAc(b1-4)]Gal(b1-4)Glc
# How it was run: as §1
# [14] = molecular target: Neu5Ac(a2-8)Neu5Ac(a2-3)[GalNAc(b1-4)]Gal(b1-4)Glc
# How it was run: as §1
# [15] = molecular target: Neu5Ac(a2-8)Neu5Ac(a2-8)Neu5Ac
# How it was run: as §1
# [16] = molecular target: Neu5Ac(a2-8)Neu5Ac(a2-8)Neu5Ac(a2-3)Gal(b1-4)Glc
# How it was run: as §1
# [17] = molecular target: Neu5Ac(a2-8)Neu5Ac(a2-8)Neu5Ac(a2-3)[Gal(b1-3)GalNAc(b1-4)]Gal(b1-4)Glc
# How it was run: as §1
# [18] = molecular target: Neu5Ac(a2-8)Neu5Ac(a2-8)Neu5Ac(a2-3)[GalNAc(b1-4)]Gal(b1-4)Glc
# How it was run: as §1
# [19] = molecular target: Neu5Ac(a2-8)Neu5Ac(a2-8)Neu5Ac(a2-8)Neu5Ac(a2-3)[GalNAc(b1-4)]Gal(b1-4)Glc
# How it was run: as §1
# [20] = molecular target: Neu5Ac(a2-8)Neu5Gc(a2-3)Gal(b1-4)GlcNAc
# How it was run: as §1
# [21] = molecular target: Neu5Ac(b2-6)Gal(b1-4)GlcNAc
# How it was run: as §1
# Neu5Ac(b2-6)GalNAc = molecular target: Neu5Ac(b2-6)GalNAc
# How it was run: as §1
# [22] = molecular target: Neu5Ac9Ac(a2-3)Gal(b1-3)GlcNAc
# How it was run: as §1
# [23] = molecular target: Neu5Ac9Ac(a2-3)Gal(b1-4)GlcNAc
# How it was run: as §1
# [24] = molecular target: Neu5Ac9Ac(a2-6)Gal(b1-4)GlcNAc
# How it was run: as §1
# [25] = molecular target: Neu5Gc(a2-3)Gal(b1-3)GlcNAc
# How it was run: as §1
# [26] = molecular target: Neu5Gc(a2-3)Gal(b1-3)[Fuc(a1-4)]GlcNAc
# How it was run: as §1
# Neu5Gc(a2-3)Gal(b1-4)Glc = molecular target: Neu5Gc(a2-3)Gal(b1-4)Glc
# How it was run: as §1
# [27] = molecular target: Neu5Gc(a2-3)Gal(b1-4)GlcNAc
# How it was run: as §1
# [28] = molecular target: Neu5Gc(a2-3)Gal(b1-4)GlcNAc(b1-3)Gal(b1-4)GlcNAc(b1-2)Man(a1-3)[Neu5Gc(a2-3)Gal(b1-4)GlcNAc(b1-3)Gal(b1-4)GlcNAc(b1-2)Man(a1-6)]Man(b1-4)GlcNAc(b1-4)GlcNAc
# How it was run: as §1
# [29] = molecular target: Neu5Gc(a2-3)Gal(b1-4)[Fuc(a1-3)]GlcNAc
# How it was run: as §1
# [30] = molecular target: Neu5Gc(a2-6)Gal(b1-4)GlcNAc
# How it was run: as §1
# Neu5Gc(a2-6)GalNAc = molecular target: Neu5Gc(a2-6)GalNAc
# How it was run: as §1
# [31] = molecular target: Neu5Gc(a2-8)Neu5Ac(a2-3)Gal(b1-4)GlcNAc
# How it was run: as §1
# [32] = molecular target: Neu5Gc(a2-8)Neu5Gc(a2-3)Gal(b1-4)GlcNAc
# How it was run: as §1
# [33] = molecular target: Neu5Gc(a2-8)Neu5Gc(a2-3)Gal(b1-4)GlcNAc(b1-3)Gal(b1-4)GlcNAc
# How it was run: as §1
binder,measurement,setting,value
B1,glycan array binding signal (z-score),[1],-0.882
same,glycan array binding signal (z-score),[2],-0.134
same,glycan array binding signal (z-score),[3],-0.144
same,glycan array binding signal (z-score),[4],1.64
same,glycan array binding signal (z-score),Neu5Ac(a2-6)GalNAc,2.59
same,glycan array binding signal (z-score),[5],2.25
same,glycan array binding signal (z-score),[6],-0.499
same,glycan array binding signal (z-score),[7],0.317
same,glycan array binding signal (z-score),[8],0.098
same,glycan array binding signal (z-score),Neu5Ac(a2-8)Neu5Ac,-0.118
same,glycan array binding signal (z-score),[9],-2.03
same,glycan array binding signal (z-score),[10],-0.021
same,glycan array binding signal (z-score),[11],2.12
same,glycan array binding signal (z-score),[12],0.48
same,glycan array binding signal (z-score),[13],0.501
same,glycan array binding signal (z-score),[14],0.658
same,glycan array binding signal (z-score),[15],0.367
same,glycan array binding signal (z-score),[16],0.112
same,glycan array binding signal (z-score),[17],-0.54
same,glycan array binding signal (z-score),[18],0.617
same,glycan array binding signal (z-score),[19],0.676
same,glycan array binding signal (z-score),[20],0.221
same,glycan array binding signal (z-score),[21],0.179
same,glycan array binding signal (z-score),Neu5Ac(b2-6)GalNAc,-0.289
same,glycan array binding signal (z-score),[22],0.378
same,glycan array binding signal (z-score),[23],0.369
same,glycan array binding signal (z-score),[24],1.35
same,glycan array binding signal (z-score),[25],0.304
same,glycan array binding signal (z-score),[26],-0.265
same,glycan array binding signal (z-score),Neu5Gc(a2-3)Gal(b1-4)Glc,-0.055
same,glycan array binding signal (z-score),[27],0.163
same,glycan array binding signal (z-score),[28],1.58
same,glycan array binding signal (z-score),[29],0.279
same,glycan array binding signal (z-score),[30],0.416
same,glycan array binding signal (z-score),Neu5Gc(a2-6)GalNAc,0.188
same,glycan array binding signal (z-score),[31],0.382
same,glycan array binding signal (z-score),[32],1.21
same,glycan array binding signal (z-score),[33],0.097

# A run of entries taken from the entries so far:
binder,measurement,setting,value
B1,glycan array binding signal (z-score),[31],0.382
same,glycan array binding signal (z-score),[32],1.21
